PubChem BioAssay AID1259308 – NCATS | 2017
Purpose: 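Genes whose loss raises luciferase production in HEK293 cells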 (primary screen). Cells: human HEK293 embryonic kidney cells stably expressing firefly luciferase (HEK-CMV-Luc2-Hygro). Knock-down reagent: single siRNA against human genes, 0.8 pmol siRNA per well. Timing: 72 h. Read-out: 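Reporter luminescence and viable-cell signal on separate replicate plates, given as percent of non-targeting control and median/MAD z-scores, plus per-cell luciferase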. Direction: total luciferase, z-score: higher = more reporter protein produced. Active means: 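An siRNA counts as active if its total luciferase robust z-score exceeds 3; genes with two or more such siRNAs out of three were retested with fresh siRNAs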. Meaning of the calls: active = raised luciferase; inactive = no rise.
The deposit covers about 59,000 reagents; this is an unselected part. About 1,510 of them (2.6%) were called active. 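Calls use total luciferase alone and ignore viability, so some active siRNAs may act by altering cell number.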 The numbers tell different reagents against one gene apart. Not all columns of the deposit are shown.

Silencing of MAPKAPK3 #1 came out at: total luciferase, z-score 4.67; active. Depletion of MAPKAPK3 #2 came out at: total luciferase, z-score -1.88; inactive. Against MAPKAPK3 #3 the deposit lists total luciferase, z-score -0.745; inactive. Silencing of CAV1 #1 came out at: total luciferase, z-score -1.5; inactive. CAV1 #2 gave total luciferase, z-score 0.955; inactive. CAV1 #3 scored total luciferase, z-score -0.94; inactive.

Against SLAMF7 #1 the deposit lists total luciferase, z-score 4.89; active. Against SLAMF7 #2, the entry reads total luciferase, z-score 0.933; inactive. Against SLAMF7 #3 the deposit lists total luciferase, z-score 0.0418; inactive. PGM2 #1 scored total luciferase, z-score -1.06; inactive. PGM2 #2 showed total luciferase, z-score -0.599; inactive. With knock-down of PGM2 #3 the results were total luciferase, z-score -0.998; inactive.

For CLEC18A #1, the values are total luciferase, z-score -2.3; inactive. For CLEC18A #2, the values are total luciferase, z-score 1.12; inactive. CLEC18A #3 showed total luciferase, z-score 1.07; inactive. With knock-down of CARTPT #1 the results were total luciferase, z-score 0.85; inactive. Knock-down of CARTPT #2 came out at: total luciferase, z-score -0.501; inactive. After knock-down of CARTPT #3, the record shows total luciferase, z-score -1.01; inactive.

Knock-down of FGFBP2 #1 came out at: total luciferase, z-score 1.92; inactive. FGFBP2 #2 scored total luciferase, z-score 3.53; active. FGFBP2 #3 scored total luciferase, z-score -1.23; inactive. PCBD2 #1 scored total luciferase, z-score 0.472; inactive. After knock-down of PCBD2 #2, the screen gave total luciferase, z-score 0.371; inactive. With knock-down of PCBD2 #3, the record shows total luciferase, z-score -0.756; inactive.

For F8A1 #1 the deposit lists total luciferase, z-score 0.189; inactive. F8A1 #2 scored total luciferase, z-score 1.3; inactive. Silencing of F8A1 #3 resulted in: total luciferase, z-score 0.285; inactive. Against FOXI3 #1, the entry reads total luciferase, z-score 0.114; inactive. For FOXI3 #2, the values are total luciferase, z-score -0.984; inactive. FOXI3 #3 scored total luciferase, z-score 0.36; inactive.

FOXI3 #4 showed total luciferase, z-score -0.681; inactive. Knock-down of FOXI3 #5 resulted in: total luciferase, z-score -0.0848; inactive. After knock-down of FOXI3 #6 the results were total luciferase, z-score 0.555; inactive.
